Literature values in patent US20100168100A1, “QUINOLINE DERIVATIVES AS P13 KINASE INHIBITORS” (SMITHKLINE BEECHAM CORPORATION, priority 2007, published 2010).
Like-named read-outs stand apart in the source and are kept apart here. At least one structure is not confirmed: it was looked up by name or label, or the drawing left a doubt.

Test system: Class I PI3-kinases
Details: cited from earlier work

SMILES: COC[C@H]1OC(=O)c2coc3c2[C@@]1(C)C1=C(C3=O)[C@@H]2CCC(=O)[C@@]2(C)C[C@H]1OC(C)=O [wortmannin]
- IC50 (read-out: IC50 against each of the various Class I PI3-kinases): 0.001 to 0.01 µM

SMILES: O=c1cc(N2CCOCC2)oc2c(-c3ccccc3)cccc12 [LY294002]
- IC50 (read-out: IC50 against each of these PI3-kinases): 15 to 20 µM
